At least one compound was matched to its structure with a doubt left.
Tests used:
Settings in all cases: standard reaction conditions
PfUGT50 = assay: UDP-glucuronosyltransferase activity assay (HPLC) with recombinant PfUGT50; assay type: biochemical, Perilla frutescens
Protocol: (§1) Escherichia coli BL21 (DE3) was transformed with each plasmid obtained in 4-(1) above. The transformant obtained was shake cultured overnight at 37° C. in 4 ml of LB medium (10 g/l tryptone, 5 g/l yeast extract, 1 g/l NaCl) supplemented with 50 μg/ml of ampicillin. The culture broth, 4 ml, which reached the stationary phase, was inoculated into 80 ml of the medium with the same composition, followed by shake culture at 37° C. When the cell turbidity (OD600) reached approximately 0.5, 0.4 mM IPTG (isopropyl-β-thiogalactopyranoside) in a final concentration was added to the medium, followed by shake culture at 22° C. for 20 hours. All of the subsequent procedures were performed at 4° C. The transformants cultured were centrifuged (7,000×g, 15 mins.) to collect the cells, and 2 ml/g cell of Buffer S (20 mM sodium phosphate buffer (pH 7.4), 20 mM imidazole, 0.5 M NaCl, 14 mM β-mercaptoethanol) was added to the cells for suspension. Subsequently, ultrasonication was performed (15 secs.×8) followed by centrifugation (15,000×g, 10 mins.). To the supernatant obtained, 0.12% (w/v) polyethyleneimine in a final concentration was added to […], which was then allowed to stand for 30 minutes. The mixture was centrifuged (15,000×g, 10 mins.) and the supernatant was recovered as a crude enzyme solution. […]

S1UGT = assay: UDP-glucuronosyltransferase activity assay (HPLC) with recombinant S1UGT; assay type: biochemical, Scutellaria laeteviolacea v. yakusimensis
Protocol: as §1

AmUGTcg10 = assay: UDP-glucuronosyltransferase activity assay (HPLC) with recombinant AmUGTcg10; assay type: biochemical, Antirrhinum majus
Protocol: as §1

SiUGT23 = assay: UDP-glucuronosyltransferase activity assay (HPLC) with recombinant SiUGT23; assay type: biochemical, Sesamum indicum
Protocol: Standard reaction conditions are as follows. A reaction solution (2 mM UDP-glucuronic acid, 100 μM glycosyl acceptor substrate, 50 mM potassium phosphate buffer (pH 7.5), enzyme solution), 50 μl, was prepared and the enzyme solution was added to initiate the reaction at 30° C. for 30 minutes. The reaction was stopped by adding 50 μl of 0.5% TFA in CH3CN and provided for HPLC analysis. The conditions for HPLC are as follows: column, Develosil C30-UG-5 (4.6×150 mm); eluant A, 0.1% TFA/H2O; eluant B, 0.08% TFA/90% CH3CN; conditions A for elution (except for aurone, catechin, coumarine and phenylpropanoid), 0 min/5% B→18 min/100% eluant B'18.1 min/5% B→25 min/5% B; conditions B for elution (aurone, catechin, coumarine and phenylpropanoid), 0 min/5% B→20 min/50% eluant B→20.5 min/5% B→25 min/5% B; flow rate, 1 ml/min; detection wavelength: 280 and 350 nm.
cDNA containing full-length ORF of SiUGT23 derived from Sesamum indicum was amplified by a gene-specific primer set (SEQ ID NOs: 24 and 25). cDNA synthesized using total RNA extracted from sesame seeds was used as a template. SiUGT23 was incorporated into Escherichia coli expression vector as in UGT of Perilla frutescens, Scutellaria laeteviolacea v. yakusimensis and Antirrhinum majus in EXAMPLE 1 and recombinant SiUGT23 protein was expressed in the same way to assay the enzyme activity.

Measured: glucuronosyl transfer activity to glycosyl acceptor substrate (in words)

O=c1cc(-c2ccc(O)cc2)oc2c([C@@H]3O[C@H](CO)[C@@H](O)[C@H](O)[C@H]3O)c(O)cc(O)c12 [vitexin]
no activity: all assays above

From patent US8628938B2, “Polynucleotide encoding UDP-glucuronyl transferase” (Suntory Holdings Limited, priority 2007, dated 2014)
